# Experimental data published in the supplement of paper PMC6411743.
# Sequences of proteins named here, by UniProt entry; tags and fusion partners are left off. A change or cut given only in a name is not applied to a line headed by its entry.
# UniProt Q9UHQ1: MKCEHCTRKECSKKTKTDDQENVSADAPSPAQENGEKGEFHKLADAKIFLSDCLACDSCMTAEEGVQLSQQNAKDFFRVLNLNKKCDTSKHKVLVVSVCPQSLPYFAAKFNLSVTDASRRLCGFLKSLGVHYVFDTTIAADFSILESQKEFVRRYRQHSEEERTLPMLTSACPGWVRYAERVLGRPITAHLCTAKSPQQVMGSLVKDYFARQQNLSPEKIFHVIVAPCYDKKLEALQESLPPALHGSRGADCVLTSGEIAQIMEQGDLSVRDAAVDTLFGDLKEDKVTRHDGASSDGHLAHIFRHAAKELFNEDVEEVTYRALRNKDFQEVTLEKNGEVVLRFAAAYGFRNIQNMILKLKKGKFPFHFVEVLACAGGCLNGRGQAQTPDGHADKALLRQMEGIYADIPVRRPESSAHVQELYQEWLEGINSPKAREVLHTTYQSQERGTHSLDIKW
# UniProt O14526: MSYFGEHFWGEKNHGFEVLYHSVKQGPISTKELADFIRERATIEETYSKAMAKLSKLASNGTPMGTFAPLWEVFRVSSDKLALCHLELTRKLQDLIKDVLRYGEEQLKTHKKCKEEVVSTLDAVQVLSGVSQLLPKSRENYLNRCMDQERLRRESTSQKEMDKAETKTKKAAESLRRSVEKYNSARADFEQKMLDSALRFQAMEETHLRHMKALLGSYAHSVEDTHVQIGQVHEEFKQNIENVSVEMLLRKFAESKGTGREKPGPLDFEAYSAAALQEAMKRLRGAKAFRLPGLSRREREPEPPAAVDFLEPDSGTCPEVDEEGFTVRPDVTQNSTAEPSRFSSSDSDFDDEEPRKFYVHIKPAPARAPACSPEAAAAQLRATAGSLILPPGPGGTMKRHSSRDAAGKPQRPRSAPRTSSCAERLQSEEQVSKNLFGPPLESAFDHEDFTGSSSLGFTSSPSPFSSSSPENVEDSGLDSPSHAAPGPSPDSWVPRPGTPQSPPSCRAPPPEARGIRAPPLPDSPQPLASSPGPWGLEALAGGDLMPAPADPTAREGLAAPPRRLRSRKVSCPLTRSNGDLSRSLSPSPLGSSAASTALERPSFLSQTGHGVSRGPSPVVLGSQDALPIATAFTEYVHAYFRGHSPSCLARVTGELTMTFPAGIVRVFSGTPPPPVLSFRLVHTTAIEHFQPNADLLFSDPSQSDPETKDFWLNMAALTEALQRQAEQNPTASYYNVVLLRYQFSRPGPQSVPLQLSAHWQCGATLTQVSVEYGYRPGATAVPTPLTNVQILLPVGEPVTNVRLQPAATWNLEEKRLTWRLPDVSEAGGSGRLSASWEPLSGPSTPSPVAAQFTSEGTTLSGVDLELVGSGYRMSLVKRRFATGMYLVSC
# UniProt P01848, whole entry, looked up: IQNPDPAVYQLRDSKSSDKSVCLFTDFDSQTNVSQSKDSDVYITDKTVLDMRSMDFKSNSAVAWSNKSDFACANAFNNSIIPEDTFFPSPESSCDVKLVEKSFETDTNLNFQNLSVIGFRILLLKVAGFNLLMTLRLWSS
# UniProt Q9UBW5: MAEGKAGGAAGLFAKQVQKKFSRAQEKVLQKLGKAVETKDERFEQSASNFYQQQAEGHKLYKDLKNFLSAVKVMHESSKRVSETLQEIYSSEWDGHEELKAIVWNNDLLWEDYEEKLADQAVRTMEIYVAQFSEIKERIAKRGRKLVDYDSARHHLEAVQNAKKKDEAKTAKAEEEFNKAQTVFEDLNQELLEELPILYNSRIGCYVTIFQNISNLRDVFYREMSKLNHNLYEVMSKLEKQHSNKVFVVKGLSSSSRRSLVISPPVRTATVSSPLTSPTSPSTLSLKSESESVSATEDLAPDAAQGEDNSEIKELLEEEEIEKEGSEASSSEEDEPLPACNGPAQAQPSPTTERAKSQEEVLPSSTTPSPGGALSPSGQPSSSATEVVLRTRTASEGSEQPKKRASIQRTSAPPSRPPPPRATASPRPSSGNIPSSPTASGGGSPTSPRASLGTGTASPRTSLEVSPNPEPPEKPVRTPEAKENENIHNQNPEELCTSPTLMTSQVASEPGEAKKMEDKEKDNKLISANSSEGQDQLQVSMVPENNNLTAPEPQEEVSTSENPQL
# UniProt Q92504: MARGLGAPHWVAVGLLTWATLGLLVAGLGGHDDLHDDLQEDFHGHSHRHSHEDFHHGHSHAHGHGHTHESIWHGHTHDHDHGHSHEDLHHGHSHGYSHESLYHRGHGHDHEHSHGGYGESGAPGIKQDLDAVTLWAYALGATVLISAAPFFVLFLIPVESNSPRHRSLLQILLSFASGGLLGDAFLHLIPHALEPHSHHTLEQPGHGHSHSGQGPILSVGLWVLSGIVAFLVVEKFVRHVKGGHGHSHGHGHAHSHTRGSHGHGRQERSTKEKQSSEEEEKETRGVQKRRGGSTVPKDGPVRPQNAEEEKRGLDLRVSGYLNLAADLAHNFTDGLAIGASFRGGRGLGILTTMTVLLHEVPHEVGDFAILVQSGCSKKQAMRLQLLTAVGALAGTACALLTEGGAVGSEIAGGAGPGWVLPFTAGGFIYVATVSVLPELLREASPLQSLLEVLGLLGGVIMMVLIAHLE
# UniProt P26440: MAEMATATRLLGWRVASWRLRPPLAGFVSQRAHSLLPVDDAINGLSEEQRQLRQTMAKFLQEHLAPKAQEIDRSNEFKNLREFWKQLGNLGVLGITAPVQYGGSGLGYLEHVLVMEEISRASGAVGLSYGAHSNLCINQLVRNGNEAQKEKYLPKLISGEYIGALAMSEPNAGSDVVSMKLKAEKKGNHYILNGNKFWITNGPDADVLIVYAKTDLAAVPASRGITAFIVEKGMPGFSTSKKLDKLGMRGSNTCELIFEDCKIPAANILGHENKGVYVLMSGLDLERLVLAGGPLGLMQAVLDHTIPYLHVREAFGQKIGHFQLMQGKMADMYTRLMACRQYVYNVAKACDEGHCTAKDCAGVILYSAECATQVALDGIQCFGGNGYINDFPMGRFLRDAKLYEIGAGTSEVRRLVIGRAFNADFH
# UniProt Q92614: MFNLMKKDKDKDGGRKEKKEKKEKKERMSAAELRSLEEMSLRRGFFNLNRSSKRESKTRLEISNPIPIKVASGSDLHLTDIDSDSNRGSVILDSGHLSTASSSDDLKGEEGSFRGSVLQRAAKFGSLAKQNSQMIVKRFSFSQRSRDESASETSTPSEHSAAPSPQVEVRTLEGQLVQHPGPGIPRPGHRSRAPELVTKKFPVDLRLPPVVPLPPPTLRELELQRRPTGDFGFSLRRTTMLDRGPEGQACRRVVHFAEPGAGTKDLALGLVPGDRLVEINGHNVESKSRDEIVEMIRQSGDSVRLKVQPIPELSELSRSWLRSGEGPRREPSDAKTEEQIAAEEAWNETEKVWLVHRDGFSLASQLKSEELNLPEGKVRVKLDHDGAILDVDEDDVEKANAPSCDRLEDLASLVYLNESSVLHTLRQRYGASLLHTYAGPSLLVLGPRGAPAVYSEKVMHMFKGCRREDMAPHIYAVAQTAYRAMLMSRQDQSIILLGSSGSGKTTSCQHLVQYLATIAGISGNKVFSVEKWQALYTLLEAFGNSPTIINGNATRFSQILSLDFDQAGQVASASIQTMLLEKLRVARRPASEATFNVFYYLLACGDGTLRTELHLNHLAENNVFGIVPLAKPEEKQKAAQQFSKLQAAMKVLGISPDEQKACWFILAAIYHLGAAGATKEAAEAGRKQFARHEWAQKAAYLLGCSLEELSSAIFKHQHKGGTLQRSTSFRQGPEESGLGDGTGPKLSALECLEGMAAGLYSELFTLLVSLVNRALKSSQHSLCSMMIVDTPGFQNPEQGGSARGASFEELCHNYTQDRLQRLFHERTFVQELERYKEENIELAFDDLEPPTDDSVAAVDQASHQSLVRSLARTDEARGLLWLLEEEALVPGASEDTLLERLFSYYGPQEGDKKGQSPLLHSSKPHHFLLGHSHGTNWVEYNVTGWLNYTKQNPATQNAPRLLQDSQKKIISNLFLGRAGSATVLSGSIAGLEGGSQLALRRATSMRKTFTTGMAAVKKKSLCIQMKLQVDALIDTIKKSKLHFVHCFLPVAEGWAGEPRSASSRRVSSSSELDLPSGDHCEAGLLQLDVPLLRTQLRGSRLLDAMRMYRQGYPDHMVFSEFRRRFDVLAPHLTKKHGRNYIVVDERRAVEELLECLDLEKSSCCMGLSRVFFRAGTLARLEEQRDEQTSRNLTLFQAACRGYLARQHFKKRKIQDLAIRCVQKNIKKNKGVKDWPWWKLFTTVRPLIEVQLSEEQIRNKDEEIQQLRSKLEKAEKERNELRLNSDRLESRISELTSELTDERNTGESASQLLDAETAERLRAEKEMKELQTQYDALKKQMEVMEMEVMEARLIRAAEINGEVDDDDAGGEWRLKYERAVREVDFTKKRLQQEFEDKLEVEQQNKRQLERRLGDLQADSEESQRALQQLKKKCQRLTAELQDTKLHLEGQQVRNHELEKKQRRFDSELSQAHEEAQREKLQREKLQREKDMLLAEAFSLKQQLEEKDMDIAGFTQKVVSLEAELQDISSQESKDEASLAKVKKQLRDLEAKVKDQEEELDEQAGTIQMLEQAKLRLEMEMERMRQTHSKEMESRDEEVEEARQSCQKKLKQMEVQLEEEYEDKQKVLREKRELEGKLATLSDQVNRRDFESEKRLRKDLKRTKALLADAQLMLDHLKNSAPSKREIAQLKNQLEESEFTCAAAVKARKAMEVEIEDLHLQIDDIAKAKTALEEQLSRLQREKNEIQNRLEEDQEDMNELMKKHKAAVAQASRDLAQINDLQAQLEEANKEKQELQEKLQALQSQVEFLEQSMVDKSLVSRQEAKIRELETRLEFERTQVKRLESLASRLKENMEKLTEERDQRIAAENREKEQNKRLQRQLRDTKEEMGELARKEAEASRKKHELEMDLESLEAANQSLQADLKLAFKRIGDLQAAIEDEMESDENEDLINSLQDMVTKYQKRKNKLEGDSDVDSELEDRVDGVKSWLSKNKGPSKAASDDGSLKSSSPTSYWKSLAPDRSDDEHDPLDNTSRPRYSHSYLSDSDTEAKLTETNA
# UniProt Q8TEH3: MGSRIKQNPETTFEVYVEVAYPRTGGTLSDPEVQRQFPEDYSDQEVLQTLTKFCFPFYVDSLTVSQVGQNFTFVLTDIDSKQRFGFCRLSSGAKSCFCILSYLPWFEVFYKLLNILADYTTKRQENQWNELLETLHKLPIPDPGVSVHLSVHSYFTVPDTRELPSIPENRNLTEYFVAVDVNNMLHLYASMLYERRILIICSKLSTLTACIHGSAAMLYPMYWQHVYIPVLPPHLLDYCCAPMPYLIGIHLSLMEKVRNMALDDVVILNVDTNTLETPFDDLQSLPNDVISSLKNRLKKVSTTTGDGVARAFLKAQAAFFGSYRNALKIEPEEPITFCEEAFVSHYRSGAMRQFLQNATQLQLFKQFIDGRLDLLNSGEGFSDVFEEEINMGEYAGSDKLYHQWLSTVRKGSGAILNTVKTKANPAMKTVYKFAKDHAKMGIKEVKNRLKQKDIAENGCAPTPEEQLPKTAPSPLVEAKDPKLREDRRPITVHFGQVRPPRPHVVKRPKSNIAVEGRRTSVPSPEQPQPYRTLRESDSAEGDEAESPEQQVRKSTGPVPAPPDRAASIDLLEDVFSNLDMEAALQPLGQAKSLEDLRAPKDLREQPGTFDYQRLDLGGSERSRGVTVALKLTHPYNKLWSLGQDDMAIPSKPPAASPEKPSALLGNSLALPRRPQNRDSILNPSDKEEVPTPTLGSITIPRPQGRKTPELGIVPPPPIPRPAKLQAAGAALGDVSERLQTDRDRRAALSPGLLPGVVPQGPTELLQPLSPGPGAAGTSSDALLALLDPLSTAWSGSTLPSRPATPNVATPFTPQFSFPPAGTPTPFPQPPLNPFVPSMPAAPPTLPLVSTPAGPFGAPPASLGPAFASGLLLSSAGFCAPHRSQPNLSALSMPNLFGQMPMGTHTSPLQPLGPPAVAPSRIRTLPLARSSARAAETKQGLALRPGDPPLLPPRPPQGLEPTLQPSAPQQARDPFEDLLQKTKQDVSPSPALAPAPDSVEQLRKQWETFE
# UniProt P09913: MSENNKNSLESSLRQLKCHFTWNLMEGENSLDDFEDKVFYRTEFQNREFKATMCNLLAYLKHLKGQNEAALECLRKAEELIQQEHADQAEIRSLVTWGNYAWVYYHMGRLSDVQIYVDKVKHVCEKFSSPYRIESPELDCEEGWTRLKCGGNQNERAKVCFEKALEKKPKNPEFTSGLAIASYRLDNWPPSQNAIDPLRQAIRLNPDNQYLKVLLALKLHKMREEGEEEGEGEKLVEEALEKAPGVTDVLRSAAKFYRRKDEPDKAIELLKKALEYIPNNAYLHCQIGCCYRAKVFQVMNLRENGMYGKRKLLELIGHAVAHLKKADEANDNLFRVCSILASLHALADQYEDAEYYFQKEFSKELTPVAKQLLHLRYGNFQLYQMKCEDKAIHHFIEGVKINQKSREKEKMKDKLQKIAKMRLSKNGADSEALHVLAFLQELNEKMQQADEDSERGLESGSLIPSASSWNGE
# ± gives the standard deviation of the averaged measurements. The list shows a part of the results, in another mix than the full data. Most entries show no effect beyond the scatter of the controls.
# Compound: Nc1ncnc2c1ncn2[C@@H]1O[C@H](COP(=O)(O)OP(=O)(O)OP(=O)(O)O)[C@@H](O)[C@H]1O [adenosine triphosphate]
# Experiment: NP40-soluble protein abundance relative to vehicle (solubility fold change) (ratio); higher = more soluble protein in presence of ATP
# Method in brief: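 Each value is a fold change relative to the detergent-processed vehicle, calculated per replicate from vsn-normalised intensities. Jurkat crude lysate received eight concentrations (0.1 to 10 mM) for 10 min at room temperature and 3 min at 37 °C, then was solubilised in 0.8% NP40 with benzonase (60 min, 4 °C). The ultracentrifuged supernatant was TMT-labelled and run by LC-MS/MS in three independent experiments.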
Target,NP40-soluble protein abundance (concentration: 0.1mM),NP40-soluble protein abundance (concentration: 0.5mM)
A0A075B6F9|Q9Y314 (UniProt Q9Y314),0.993 ± 0.045,0.974 ± 0.043
A0A087WUL0|Q3LXA3 (UniProt Q3LXA3),0.979 ± 0.013,0.979 ± 0.013
A0A0A0MSE9|B7WPA5 and related entries (UniProt Q96CS7),1.13 ± 0.035,1.13 ± 0.16
A0A0D9SF53|A0A0D9SFB3|A0A0D9SG12|O00571 (UniProt O00571),1.07 ± 0.039,1.11 ± 0.05
A0A0A0MSH9|Q86WJ1 and related entries (UniProt Q86WJ1),1.04 ± 0.041,1.04 ± 0.052
A0A0C4DH01|Q9NVU0 and related entries (UniProt Q9NVU0),1.01 ± 0.086,1 ± 0.14
A0A0C4DGZ1|Q8N5P1 (UniProt Q8N5P1),0.952 ± 0.041,0.98 ± 0.037
A0A088AWN8|Q9UHQ1 and related entries (UniProt Q9UHQ1),1.01 ± 0.074,0.918 ± 0.14
A0A0B4J2F8|A6NFM0 and related entries (UniProt Q9GZM3+Q9H1A7+P52435+F6S314+E2QRJ6+A6NFM0),0.894 ± 0.092,0.94 ± 0.11
A0A0A0MRS4|Q9NVV0 (UniProt Q9NVV0),1 ± 0.055,1.0425 ± 0.00069
A0A0C3SFZ9|O14526 and related entries (UniProt O14526),1.02 ± 0.011,1.03 ± 0.069
A0A087X1L0|Q9NS73 and related entries (UniProt Q9NS73),1.04 ± 0.11,1.01 ± 0.17
A0A087WVB5|Q75MD7 and related entries (UniProt Q8WXX7),0.888 ± 0.048,0.903 ± 0.03
A0A087WWC6|P01848 and related entries (UniProt Q6P4I7+P01848),0.91 ± 0.051,0.968 ± 0.041
A0A0B4J1V9|Q9NRZ9 and related entries (UniProt Q9NRZ9),1.06 ± 0.03,1.21 ± 0.032
A0A075B7B5|A2RUF3 and related entries (UniProt O75044),1.05 ± 0.029,1.05 ± 0.038
A0A087X188|F5H0W4 and related entries (UniProt Q9UBW5),0.998 ± 0.016,0.992 ± 0.035
A0A087WTX2|Q92504 (UniProt Q92504),0.946 ± 0.015,0.947 ± 0.016

Target,NP40-soluble protein abundance (concentration: 0.1mM),NP40-soluble protein abundance (concentration: 0.5mM)
A0A087WU62|A0A087X2D5|A0A0G2JMS5|Q9BRJ2 (UniProt Q9BRJ2),1.02 ± 0.084,1.04 ± 0.11
A0A0A0MSK6|Q13017 and related entries (UniProt Q13017),1.11 ± 0.034,1.09 ± 0.087
A0A0A0MRN1|Q5T8I9 (UniProt Q5T8I9),1.1 ± 0.029,0.956 ± 0.059
A0A0A0MT83|P26440 (UniProt P26440),1.06 ± 0.095,1.04 ± 0.053
A0A0A0MQR2|Q9BY42 (UniProt Q9BY42),0.969 ± 0.018,1 ± 0.025
A0A0A0MRZ4|E7EMV7 and related entries (UniProt Q15025),0.943 ± 0.098,0.94 ± 0.045
A0A087WU73|A0A087X287|B0QY83 and related entries (UniProt Q969V6),1 ± 0.14,0.904 ± 0.15
A0A0A0MS41|Q9BWM7 (UniProt Q9BWM7),0.947 ± 0.041,0.965 ± 0.029
A0A0D9SFK2|Q92614 and related entries (UniProt Q92614),0.977 ± 0.037,0.999 ± 0.072
A0A0A0MSB8|Q9UPT5 and related entries (UniProt Q9UPT5),1.03 ± 0.046,1.03 ± 0.061
A0A0A0MQU0|Q9BV38 and related entries (UniProt Q9BV38),1.04 ± 0.14,0.974 ± 0.024
A0A0A0MS49|Q8TEH3 (UniProt Q8TEH3),1.03 ± 0.068,1.13 ± 0.076
A0A087WW65|O75027 and related entries (UniProt O75027),1.11 ± 0.11,1.05 ± 0.084
A0A087X279|P09913 (UniProt P09913),1.08 ± 0.099,1.05 ± 0.033
A0A087WTW5|Q9UKL3 (UniProt Q9UKL3),0.98 ± 0.075,1.01 ± 0.095
A0A0B4J2E8|Q96D31 and related entries (UniProt Q96D31),1.02 ± 0.012,0.923 ± 0.1
A0A087WT20|Q9NV06 (UniProt Q9NV06),1.12 ± 0.026,1.1 ± 0.056
